Assay results from patent publication US20100087476A1, “PHARMACEUTICAL COMPOUNDS” (Biovail Laboratories International (Barbados) S.R.L., priority 2008, published 2010).
At least one structure is not confirmed: it was looked up by name or label, or the drawing left a doubt.

Experiments:
Type in all cases: in vivo, BALB/c mice
OVA-sensitised mice [1] = test: Unrestrained whole body plethysmography (PenH) during methacholine exposure, chicken ovalbumin parenteral sensitization model of asthma; settings: Budesonide 1 mg/kg twice daily oral gavage, day 14-24 (Group F)
Description: (§1) An animal model of asthma was used in this study that included parenteral sensitisation of mice with chicken ovalbumin (OVA) together with a suitable adjuvant (Alum). Ovalbumin is widely used as an antigen as a result of its availability and ability to induce a good Th2-type immune response due to lack of any previous exposure to this antigen. Repeated aerosol exposure to ovalbumin post-sensitisation triggers airway changes leading to hyper-responsiveness, similar to that seen in asthma. These changes can be measured following challenge with a bronchoconstricting agent such as methacholine and analysed using whole body plethysmography. […] The degree of bronchochonstriction (BHR) can be expressed as enhanced pause (Pen H), a calculated value which correlates with measurement of airway resistance, impedance and intrapleural pressure in the same mouse.
Pen H is calculated from the relationship Pen H=(Te/Tr−1)×(Pef/Pif) where;
Groups of 8 BALB/c mice aged between 5 and 8 weeks of age were sensitised by i.p. (intraperitoneal) injection with ovalalbumin (OVA) in alum on days 0 and 14 (except Group A). […] These changes can be measured using the Buxco software to determine the PenH values for each animal. BAL fluids were collected and cytospins prepared and counted differentially for the presence of infiltrating cells. […]

OVA-sensitised mice [2] = test: Differential cell counts in bronchial lavage fluid (BAL), chicken ovalbumin parenteral sensitization model of asthma; settings: Budesonide 1 mg/kg twice daily oral gavage, day 14-24 (Group F)
Description: as §1
In addition, allergy can by analysed by examination of changes in the lung and lung fluid. […] Further, additional markers of allergy such as the presence of cytokines associated with allergy, IL-4 and IL-13 can be analysed in the BAL fluid.
Groups of 8 BALB/c mice aged between 5 and 8 weeks of age were sensitised by i.p. (intraperitoneal) injection with ovalalbumin (OVA) in alum on days 0 and 14 (except Group A). […] These changes can be measured using the Buxco software to determine the PenH values for each animal. […]

OVA-sensitised mice [3] = test: Lung histopathology scores (pulmonary inflammation), chicken ovalbumin parenteral sensitization model of asthma; settings: Budesonide 1 mg/kg twice daily oral gavage (Group F), against maximum pathology in group B
Experimental: Groups of 8 BALB/c mice aged between 5 and 8 weeks of age were sensitised by i.p. (intraperitoneal) injection with ovalalbumin (OVA) in alum on days 0 and 14 (except Group A). All animals were challenged by aerosol exposure to 5% OVA for 20 minutes daily from days 18 to 23. Treatments were given by oral gavage twice daily from day 14 to day 24. At termination (day 24), all animals were subjected to unrestrained whole body plethysmography (whole-body plethysmograph Buxco Electronics, Troy, US) during exposure to increasing doses of methacholine leading to bronchoconstriction and hyper-responsiveness. These changes can be measured using the Buxco software to determine the PenH values for each animal. BAL fluids were collected and cytospins prepared and counted differentially for the presence of infiltrating cells. The supernatant from the BAL was retained and stored at ^−80° C. for possible cytokine analysis. Further, lungs were removed and placed in 10% buffered formalin for possible histopathology. […] The HE-stained sections were assessed for lung inflammation. Each lung was scored as described below. Samples were scored in blinded fashion, without knowledge of the experimental protocol or identity of groups. A semi-quantitative grading system was used to describe the degree of inflammatory change in the lungs. Descriptive comments (nature of cellular infiltration) were also recorded. […]

Q: Which “airway hyper-responsiveness to methacholine (PenH)” value (OVA-sensitised mice [1]) does the source give for `CCCC1O[C@@H]2C[C@H]3[C@@H]4CCC5=CC(=O)C=C[C@]5(C)[C@H]4[C@@H](O)C[C@]3(C)[C@]2(C(=O)CO)O1` (stereo partly drawn) [Budesonide, reference compound] here?
A: The value was “reduced the airway hyper-responsiveness to methacholine to near control levels”.

Q: What about the “lung cell infiltration (cells in BAL)” value (OVA-sensitised mice [2]) of the same compound?
A: Its value is “markedly suppressed lung cell infiltration”.

Q: What about the “lung pathology (mean group histopathological score)” value (OVA-sensitised mice [3]) of the same compound?
A: The value was “ameliorated”.
